These are yes or no findings as the source states them, for the method shown. In cells and extracts the contact can be indirect. Here binding means that the protein was enriched with, or labelled near, the bait; the list need not be complete. For some of these results: No binding means not detected with the bait. Where a sequence is shown, tags or fusion partners need not be part of it.
Assays:
[1] = target: T1, 3xFlag-NOL9 (human (endogenous in HEK293FT)) (UniProt Q5SY16); experiment: affinity purification with mass spectrometry
T1 sequence: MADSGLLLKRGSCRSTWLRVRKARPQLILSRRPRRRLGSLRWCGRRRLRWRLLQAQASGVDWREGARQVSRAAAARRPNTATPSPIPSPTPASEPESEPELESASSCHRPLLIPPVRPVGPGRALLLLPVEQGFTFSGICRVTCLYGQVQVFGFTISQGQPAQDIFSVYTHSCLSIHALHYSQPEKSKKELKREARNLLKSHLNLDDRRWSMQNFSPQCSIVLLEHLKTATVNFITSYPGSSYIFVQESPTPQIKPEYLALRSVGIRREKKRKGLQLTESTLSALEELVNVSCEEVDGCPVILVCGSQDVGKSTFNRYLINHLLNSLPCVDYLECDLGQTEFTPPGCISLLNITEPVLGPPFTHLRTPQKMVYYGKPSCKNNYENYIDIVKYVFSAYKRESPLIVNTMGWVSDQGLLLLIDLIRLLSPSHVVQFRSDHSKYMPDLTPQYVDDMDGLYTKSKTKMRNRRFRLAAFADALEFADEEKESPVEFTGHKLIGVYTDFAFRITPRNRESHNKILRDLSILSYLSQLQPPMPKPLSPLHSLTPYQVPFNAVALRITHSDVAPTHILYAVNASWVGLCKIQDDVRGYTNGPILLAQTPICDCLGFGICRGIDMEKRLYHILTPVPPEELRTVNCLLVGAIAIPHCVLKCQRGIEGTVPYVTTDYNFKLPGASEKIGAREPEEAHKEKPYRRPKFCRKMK

Protein sequences, listed by entry. Tags and fused reporters are not part of them.
UniProt Q9H4L4: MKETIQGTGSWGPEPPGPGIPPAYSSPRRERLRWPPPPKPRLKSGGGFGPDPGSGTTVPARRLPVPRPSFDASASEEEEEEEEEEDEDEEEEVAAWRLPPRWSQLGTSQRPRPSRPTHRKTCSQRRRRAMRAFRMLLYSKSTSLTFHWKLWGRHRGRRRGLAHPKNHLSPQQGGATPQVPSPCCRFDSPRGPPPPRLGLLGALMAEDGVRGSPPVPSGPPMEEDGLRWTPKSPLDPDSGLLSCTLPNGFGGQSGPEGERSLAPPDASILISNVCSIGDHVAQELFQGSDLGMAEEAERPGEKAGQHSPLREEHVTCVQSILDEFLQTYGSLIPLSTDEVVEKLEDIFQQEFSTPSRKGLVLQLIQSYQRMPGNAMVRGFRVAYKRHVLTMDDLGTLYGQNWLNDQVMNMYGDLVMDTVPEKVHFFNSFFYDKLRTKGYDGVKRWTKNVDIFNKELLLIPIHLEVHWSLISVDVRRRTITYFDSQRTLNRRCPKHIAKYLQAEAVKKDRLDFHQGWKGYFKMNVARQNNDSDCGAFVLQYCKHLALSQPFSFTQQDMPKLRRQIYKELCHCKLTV
UniProt Q93009: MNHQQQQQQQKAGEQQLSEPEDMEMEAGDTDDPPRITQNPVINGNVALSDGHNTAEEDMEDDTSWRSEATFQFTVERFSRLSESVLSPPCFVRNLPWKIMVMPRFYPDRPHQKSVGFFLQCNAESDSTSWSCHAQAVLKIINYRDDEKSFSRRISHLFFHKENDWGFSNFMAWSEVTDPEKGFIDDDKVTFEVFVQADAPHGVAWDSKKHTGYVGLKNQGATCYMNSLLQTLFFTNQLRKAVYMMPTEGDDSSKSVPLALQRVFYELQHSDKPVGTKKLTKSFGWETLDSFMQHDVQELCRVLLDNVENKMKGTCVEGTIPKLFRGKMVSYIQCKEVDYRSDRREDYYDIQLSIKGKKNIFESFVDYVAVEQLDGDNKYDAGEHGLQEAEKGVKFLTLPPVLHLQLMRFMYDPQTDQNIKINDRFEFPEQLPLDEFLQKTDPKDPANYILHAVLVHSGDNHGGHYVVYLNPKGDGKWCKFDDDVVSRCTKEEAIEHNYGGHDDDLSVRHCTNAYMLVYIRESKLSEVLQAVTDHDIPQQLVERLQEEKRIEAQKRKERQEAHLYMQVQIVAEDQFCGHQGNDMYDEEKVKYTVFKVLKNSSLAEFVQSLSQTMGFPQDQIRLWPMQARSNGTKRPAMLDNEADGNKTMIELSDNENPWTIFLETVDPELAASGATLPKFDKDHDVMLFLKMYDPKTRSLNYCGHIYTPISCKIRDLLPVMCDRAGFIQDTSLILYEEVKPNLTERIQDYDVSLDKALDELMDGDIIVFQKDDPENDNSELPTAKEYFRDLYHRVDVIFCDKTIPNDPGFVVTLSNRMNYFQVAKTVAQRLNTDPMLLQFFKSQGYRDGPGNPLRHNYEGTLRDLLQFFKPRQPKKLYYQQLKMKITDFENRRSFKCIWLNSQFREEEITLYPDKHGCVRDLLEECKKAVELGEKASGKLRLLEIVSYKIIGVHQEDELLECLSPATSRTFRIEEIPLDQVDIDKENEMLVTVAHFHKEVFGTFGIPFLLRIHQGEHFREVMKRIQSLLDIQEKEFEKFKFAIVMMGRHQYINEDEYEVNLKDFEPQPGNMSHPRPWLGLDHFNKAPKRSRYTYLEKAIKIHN
UniProt Q8IZL8: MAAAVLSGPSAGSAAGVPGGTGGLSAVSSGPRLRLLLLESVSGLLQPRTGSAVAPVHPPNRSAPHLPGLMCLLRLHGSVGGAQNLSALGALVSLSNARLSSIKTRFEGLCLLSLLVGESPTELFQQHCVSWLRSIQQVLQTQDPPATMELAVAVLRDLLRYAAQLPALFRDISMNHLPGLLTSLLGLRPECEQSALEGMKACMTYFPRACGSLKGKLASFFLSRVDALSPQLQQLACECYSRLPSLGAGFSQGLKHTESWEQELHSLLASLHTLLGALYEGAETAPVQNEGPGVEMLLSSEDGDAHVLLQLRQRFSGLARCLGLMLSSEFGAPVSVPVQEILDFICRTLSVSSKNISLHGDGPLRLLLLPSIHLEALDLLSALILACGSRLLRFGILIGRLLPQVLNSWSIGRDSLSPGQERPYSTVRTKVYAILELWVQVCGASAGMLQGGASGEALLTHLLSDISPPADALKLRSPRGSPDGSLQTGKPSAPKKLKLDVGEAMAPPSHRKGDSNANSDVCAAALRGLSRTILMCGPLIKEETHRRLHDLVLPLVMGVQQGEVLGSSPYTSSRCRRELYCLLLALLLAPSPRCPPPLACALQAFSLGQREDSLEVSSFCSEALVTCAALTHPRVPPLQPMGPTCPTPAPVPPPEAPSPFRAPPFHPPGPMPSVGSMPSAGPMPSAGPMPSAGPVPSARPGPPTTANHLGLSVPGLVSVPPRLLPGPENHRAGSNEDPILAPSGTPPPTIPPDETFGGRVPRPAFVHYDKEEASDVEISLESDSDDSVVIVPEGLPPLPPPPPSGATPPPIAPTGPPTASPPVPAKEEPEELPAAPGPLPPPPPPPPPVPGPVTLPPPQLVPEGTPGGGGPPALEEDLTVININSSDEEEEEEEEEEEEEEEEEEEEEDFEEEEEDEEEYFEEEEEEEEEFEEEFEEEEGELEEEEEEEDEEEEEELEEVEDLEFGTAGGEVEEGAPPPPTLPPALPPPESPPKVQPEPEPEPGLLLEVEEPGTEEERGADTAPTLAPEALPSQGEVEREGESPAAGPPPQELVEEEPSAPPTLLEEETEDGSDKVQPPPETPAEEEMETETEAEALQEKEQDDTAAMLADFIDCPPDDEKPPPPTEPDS
UniProt O75530: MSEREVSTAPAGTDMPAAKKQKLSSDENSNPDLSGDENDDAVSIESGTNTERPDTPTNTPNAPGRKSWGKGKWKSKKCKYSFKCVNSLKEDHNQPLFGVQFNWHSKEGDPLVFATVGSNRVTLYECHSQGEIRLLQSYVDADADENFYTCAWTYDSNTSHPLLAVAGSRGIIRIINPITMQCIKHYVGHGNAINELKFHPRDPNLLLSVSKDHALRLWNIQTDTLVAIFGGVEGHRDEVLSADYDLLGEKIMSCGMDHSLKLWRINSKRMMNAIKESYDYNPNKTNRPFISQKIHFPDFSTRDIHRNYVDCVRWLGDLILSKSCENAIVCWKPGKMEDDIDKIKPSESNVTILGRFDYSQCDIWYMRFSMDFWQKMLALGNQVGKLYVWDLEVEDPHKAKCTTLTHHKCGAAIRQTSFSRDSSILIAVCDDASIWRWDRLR
UniProt Q969R5: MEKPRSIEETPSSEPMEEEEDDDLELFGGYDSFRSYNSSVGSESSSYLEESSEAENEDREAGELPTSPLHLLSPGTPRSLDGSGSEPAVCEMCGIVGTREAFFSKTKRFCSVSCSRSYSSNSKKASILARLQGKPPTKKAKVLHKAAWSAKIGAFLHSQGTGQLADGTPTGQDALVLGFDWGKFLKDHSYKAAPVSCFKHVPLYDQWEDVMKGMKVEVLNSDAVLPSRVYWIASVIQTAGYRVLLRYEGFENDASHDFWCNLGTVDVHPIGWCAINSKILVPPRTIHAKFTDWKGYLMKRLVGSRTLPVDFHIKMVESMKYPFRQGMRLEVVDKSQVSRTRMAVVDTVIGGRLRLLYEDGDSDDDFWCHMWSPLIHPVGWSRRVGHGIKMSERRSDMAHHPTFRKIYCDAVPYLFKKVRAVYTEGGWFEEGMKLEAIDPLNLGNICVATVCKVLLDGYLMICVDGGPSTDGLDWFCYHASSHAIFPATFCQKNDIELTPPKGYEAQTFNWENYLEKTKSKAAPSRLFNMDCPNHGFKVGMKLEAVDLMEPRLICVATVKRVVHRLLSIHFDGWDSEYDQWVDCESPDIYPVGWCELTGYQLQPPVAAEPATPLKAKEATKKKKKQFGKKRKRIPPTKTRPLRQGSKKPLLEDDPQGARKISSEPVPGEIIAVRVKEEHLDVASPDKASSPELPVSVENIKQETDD
UniProt P83916: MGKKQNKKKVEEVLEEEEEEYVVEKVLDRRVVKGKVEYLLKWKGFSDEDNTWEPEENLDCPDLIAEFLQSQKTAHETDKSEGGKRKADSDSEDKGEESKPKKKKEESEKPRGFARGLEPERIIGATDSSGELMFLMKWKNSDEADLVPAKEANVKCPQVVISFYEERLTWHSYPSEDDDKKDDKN
UniProt Q13185: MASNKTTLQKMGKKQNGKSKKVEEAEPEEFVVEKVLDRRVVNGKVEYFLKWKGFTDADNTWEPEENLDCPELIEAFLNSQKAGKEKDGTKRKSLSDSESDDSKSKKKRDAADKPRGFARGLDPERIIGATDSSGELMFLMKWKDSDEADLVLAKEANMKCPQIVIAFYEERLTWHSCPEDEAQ
UniProt Q15022: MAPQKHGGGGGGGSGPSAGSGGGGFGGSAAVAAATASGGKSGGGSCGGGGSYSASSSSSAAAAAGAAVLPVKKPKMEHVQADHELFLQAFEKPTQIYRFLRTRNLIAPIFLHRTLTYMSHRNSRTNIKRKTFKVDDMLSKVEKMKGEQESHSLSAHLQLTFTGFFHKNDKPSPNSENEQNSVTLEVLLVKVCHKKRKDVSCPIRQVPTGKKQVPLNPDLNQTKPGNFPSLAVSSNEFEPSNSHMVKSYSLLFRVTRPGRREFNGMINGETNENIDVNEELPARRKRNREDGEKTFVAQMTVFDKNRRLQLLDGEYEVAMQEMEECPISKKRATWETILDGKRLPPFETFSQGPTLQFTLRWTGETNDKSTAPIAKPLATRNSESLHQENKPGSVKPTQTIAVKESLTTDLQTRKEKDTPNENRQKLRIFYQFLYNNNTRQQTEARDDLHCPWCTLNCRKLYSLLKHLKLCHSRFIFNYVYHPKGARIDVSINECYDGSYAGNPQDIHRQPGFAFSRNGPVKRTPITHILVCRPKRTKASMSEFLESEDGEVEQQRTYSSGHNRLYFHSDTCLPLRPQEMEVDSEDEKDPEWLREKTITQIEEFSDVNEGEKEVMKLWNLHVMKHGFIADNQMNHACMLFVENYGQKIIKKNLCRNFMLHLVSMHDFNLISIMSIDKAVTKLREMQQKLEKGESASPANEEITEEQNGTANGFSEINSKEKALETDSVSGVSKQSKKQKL
UniProt P45973: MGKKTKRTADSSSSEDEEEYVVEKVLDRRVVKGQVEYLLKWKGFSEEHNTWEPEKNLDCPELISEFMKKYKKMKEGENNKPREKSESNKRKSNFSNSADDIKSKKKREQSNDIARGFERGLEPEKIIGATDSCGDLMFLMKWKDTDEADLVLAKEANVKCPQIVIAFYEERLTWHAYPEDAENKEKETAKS
UniProt Q99496: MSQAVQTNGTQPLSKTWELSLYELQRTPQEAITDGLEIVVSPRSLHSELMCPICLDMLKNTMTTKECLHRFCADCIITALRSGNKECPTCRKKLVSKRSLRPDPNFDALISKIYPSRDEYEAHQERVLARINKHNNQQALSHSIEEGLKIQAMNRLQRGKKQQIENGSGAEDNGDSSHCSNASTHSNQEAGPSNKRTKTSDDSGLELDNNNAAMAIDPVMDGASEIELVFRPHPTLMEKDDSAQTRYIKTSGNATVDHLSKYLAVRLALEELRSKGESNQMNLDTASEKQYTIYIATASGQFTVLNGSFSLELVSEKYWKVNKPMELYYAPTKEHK

[2] = target: T2, 3xFlag-WDR18 (human (endogenous in HEK293FT)) (UniProt Q9BV38); experiment: affinity purification with mass spectrometry
T2 sequence: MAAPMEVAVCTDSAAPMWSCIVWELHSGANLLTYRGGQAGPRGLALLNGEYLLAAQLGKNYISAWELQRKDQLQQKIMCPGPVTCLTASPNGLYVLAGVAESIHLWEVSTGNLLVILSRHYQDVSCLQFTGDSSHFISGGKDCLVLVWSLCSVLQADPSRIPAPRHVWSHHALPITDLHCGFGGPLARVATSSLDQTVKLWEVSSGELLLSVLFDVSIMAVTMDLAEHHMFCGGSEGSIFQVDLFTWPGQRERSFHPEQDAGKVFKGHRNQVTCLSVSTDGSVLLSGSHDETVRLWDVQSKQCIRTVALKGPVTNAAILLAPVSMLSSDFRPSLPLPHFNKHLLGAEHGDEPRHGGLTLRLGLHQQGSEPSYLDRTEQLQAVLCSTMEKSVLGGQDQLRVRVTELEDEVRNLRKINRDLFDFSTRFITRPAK

| Molecule | binding [1] | binding [2] |
| --- | --- | --- |
| SENP3 (from UniProt Q9H4L4 1-574) | binds | binds |
| USP7 (from UniProt Q93009 1-1102) | binds | binds |
| PELP1 (from UniProt Q8IZL8 1-1130) | binds | binds |
| EED (from UniProt O75530 1-441) | binds | – |
| L3MBTL2 (from UniProt Q969R5 1-705) | binds | – |
| CBX1 (from UniProt P83916 1-185) | no binding | – |
| CBX3 (from UniProt Q13185 1-183) | no binding | – |
| SUZ12 (from UniProt Q15022 1-739) | binds | – |
| CBX5 (from UniProt P45973 1-191) | no binding | – |
| MDN1 (from UniProt Q9NU22 1-5596) | binds | binds |
| RING1B (from UniProt Q99496 1-336) | binds | binds |
| WDR18 (protein, UniProt Q9BV38 1-432) MAAPMEVAVCTDSAAPMWSCIVWELHSGANLLTYRGGQAGPRGLALLNGEYLLAAQLGKNYISAWELQRKDQLQQKIMCPGPVTCLTASPNGLYVLAGVAESIHLWEVSTGNLLVILSRHYQDVSCLQFTGDSSHFISGGKDCLVLVWSLCSVLQADPSRIPAPRHVWSHHALPITDLHCGFGGPLARVATSSLDQTVKLWEVSSGELLLSVLFDVSIMAVTMDLAEHHMFCGGSEGSIFQVDLFTWPGQRERSFHPEQDAGKVFKGHRNQVTCLSVSTDGSVLLSGSHDETVRLWDVQSKQCIRTVALKGPVTNAAILLAPVSMLSSDFRPSLPLPHFNKHLLGAEHGDEPRHGGLTLRLGLHQQGSEPSYLDRTEQLQAVLCSTMEKSVLGGQDQLRVRVTELEDEVRNLRKINRDLFDFSTRFITRPAK | binds | – |
| NOL9 (protein, UniProt Q5SY16 1-702) MADSGLLLKRGSCRSTWLRVRKARPQLILSRRPRRRLGSLRWCGRRRLRWRLLQAQASGVDWREGARQVSRAAAARRPNTATPSPIPSPTPASEPESEPELESASSCHRPLLIPPVRPVGPGRALLLLPVEQGFTFSGICRVTCLYGQVQVFGFTISQGQPAQDIFSVYTHSCLSIHALHYSQPEKSKKELKREARNLLKSHLNLDDRRWSMQNFSPQCSIVLLEHLKTATVNFITSYPGSSYIFVQESPTPQIKPEYLALRSVGIRREKKRKGLQLTESTLSALEELVNVSCEEVDGCPVILVCGSQDVGKSTFNRYLINHLLNSLPCVDYLECDLGQTEFTPPGCISLLNITEPVLGPPFTHLRTPQKMVYYGKPSCKNNYENYIDIVKYVFSAYKRESPLIVNTMGWVSDQGLLLLIDLIRLLSPSHVVQFRSDHSKYMPDLTPQYVDDMDGLYTKSKTKMRNRRFRLAAFADALEFADEEKESPVEFTGHKLIGVYTDFAFRITPRNRESHNKILRDLSILSYLSQLQPPMPKPLSPLHSLTPYQVPFNAVALRITHSDVAPTHILYAVNASWVGLCKIQDDVRGYTNGPILLAQTPICDCLGFGICRGIDMEKRLYHILTPVPPEELRTVNCLLVGAIAIPHCVLKCQRGIEGTVPYVTTDYNFKLPGASEKIGAREPEEAHKEKPYRRPKFCRKMK | – | binds |
| LAS1L (protein, UniProt Q9Y4W2 1-734) MSWESGAGPGLGSQGMDLVWSAWYGKCVKGKGSLPLSAHGIVVAWLSRAEWDQVTVYLFCDDHKLQRYALNRITVWRSRSGNELPLAVASTADLIRCKLLDVTGGLGTDELRLLYGMALVRFVNLISERKTKFAKVPLKCLAQEVNIPDWIVDLRHELTHKKMPHINDCRRGCYFVLDWLQKTYWCRQLENSLRETWELEEFREGIEEEDQEEDKNIVVDDITEQKPEPQDDGKSTESDVKADGDSKGSEEVDSHCKKALSHKELYERARELLVSYEEEQFTVLEKFRYLPKAIKAWNNPSPRVECVLAELKGVTCENREAVLDAFLDDGFLVPTFEQLAALQIEYEDGQTEVQRGEGTDPKSHKNVDLNDVLVPKPFSQFWQPLLRGLHSQNFTQALLERMLSELPALGISGIRPTYILRWTVELIVANTKTGRNARRFSAGQWEARRGWRLFNCSASLDWPRMVESCLGSPCWASPQLLRIIFKAMGQGLPDEEQEKLLRICSIYTQSGENSLVQEGSEASPIGKSPYTLDSLYWSVKPASSSFGSEAKAQQQEEQGSVNDVKEEEKEEKEVLPDQVEEEEENDDQEEEEEDEDDEDDEEEDRMEVGPFSTGQESPTAENARLLAQKRGALQGSAWQVSSEDVRWDTFPLGRMPGQTEDPAELMLENYDTMYLLDQPVLEQRLEPSTCKTDTLGLSCGVGSGNCSNSSSSNFEGLLWSQGQLHGLKTGLQLF | – | binds |
| TEX10 (protein, UniProt Q9NXF1 1-929) MTKKRKRQHDFQKVKLKVGKKKPKLQNATPTNFKTKTIHLPEQLKEDGTLPTNNRKLNIKDLLSQMHHYNAGVKQSALLGLKDLLSQYPFIIDAHLSNILSEVTAVFTDKDANVRLAAVQLLQFLAPKIRAEQISPFFPLVSAHLSSAMTHITEGIQEDSLKVLDILLEQYPALITGRSSILLKNFVELISHQQLSKGLINRDRSQSWILSVNPNRRLTSQQWRLKVLVRLSKFLQALADGSSRLRESEGLQEQKENPHATSNSIFINWKEHANDQQHIQVYENGGSQPNVSSQFRLRYLVGGLSGVDEGLSSTENLKGFIEIIIPLLIECWVEAVPPQLATPVGNGIEREPLQVMQQVLNIISLLWKLSKQQDETHKLESWLRKNYLIDFKHHFMSRFPYVLKEITKHKRKEPNKSIKHCTVLSNNIDHLLLNLTLSDIMVSLANASTLQKDCSWIEMIRKFVTETLEDGSRLNSKQLNRLLGVSWRLMQIQPNREDTETLIKAVYTLYQQRGLILPVRTLLLKFFSKIYQTEELRSCRFRYRSKVLSRWLAGLPLQLAHLGSRNPELSTQLIDIIHTAAARANKELLKSLQATALRIYDPQEGAVVVLPADSQQRLVQLVYFLPSLPADLLSRLSRCCIMGRLSSSLAAMLIGILHMRSSFSGWKYSAKDWLMSDVDYFSFLFSTLTGFSKEELTWLQSLRGVPHVIQTQLSPVLLYLTDLDQFLHHWDVTEAVFHSLLVIPARSQNFDILQSAISKHLVGLTVIPDSTAGCVFGVICKLLDHTCVVSETLLPFLASCCYSLLYFLLTIEKGEAEHLRKRDKLWGVCVSILALLPRVLRLMLQSLRVNRVGPEELPVVGQLLRLLLQHAPLRTHMLTNAILVQQIIKNITTLKSGSVQEQWLTDLHYCFNVYITGHPQGPSALATVY | binds | binds |
| RYBP (protein, UniProt Q8N488 1-228) MTMGDKKSPTRPKRQAKPAADEGFWDCSVCTFRNSAEAFKCSICDVRKGTSTRKPRINSQLVAQQVAQQYATPPPPKKEKKEKVEKQDKEKPEKDKEISPSVTKKNTNKKTKPKSDILKDPPSEANSIQSANATTKTSETNHTSRPRLKNVDRSTAQQLAVTVGNVTVIITDFKEKTRSSSTSSSTVTSSAGSEQQNQSSSGSESTDKGSSRSSTPKGDMSAVNDESF | – | binds |
